The source gives many values for each of these; only a part stands here.
Assay: Toxicokinetics and tissue disposition of total [14C] radioactivity after a single intratracheal dose of [14C]-PCB52 (0.157 mg/kg) in pregnant rats at GD 11±1
Format: in vivo, Sprague–Dawley rats
Protocol: Female Sprague–Dawley rats (8 weeks old) weighing 237–269.7 g (mean = 247.5 g) (Envigo RMS, LLC, Indianapolis, IN) were used for this study. All animal experiments were performed following the protocols evaluated and approved by the University of Iowa Institutional Animal Care and Use Committee (approval number 3091097). After arrival, the animals were acclimated for 7 days. The animals were housed in a light and temperature-controlled environment with ad libitum access to food and water during quarantine and throughout the study. Timed pregnancy was achieved by harem mating. , Briefly, one male and two female rats were placed together in the evening and checked for vaginal plug the following day. If vaginal plug was present, the male was removed from the breeding cage, and the gestation day 0 (GD 0), 0-day post coitum was assigned. Pregnancies were confirmed by ultrasound scan at GD 9. The dams were exposed at GD 11 (±1 day) to capture the period of early organogenesis and hormonal function, which falls within week 3 of human embryonic development. ,− On the day of the experiment, pregnant rats were intratracheally administered an average of 40 μg (range, 35–45 μg) of [^14C]-PCB52 in 100 μL of exposure solution. Although the dose used in this study exceeded the tolerable daily intake (TDI) of PCBs for healthy individuals, which is 1.6 μg per day for an individual weighing 80 kg, the use of higher acute doses has been established in toxicological studies intended for risk assessment. The intratracheal instillation method was chosen for administering [^14C]-PCB52 to represent inhalation exposures, capture exhaled concentration, and efficiently utilize the limited availability of the cost-intensive radiolabeled PCB52. , Although inhalation exposure would better represent real-world exposures to airborne LC-PCBs, it would not allow us to accurately measure the amount of PCB52 exhaled into the air after exposure and is experimentally infeasible. […] All intratracheal instillations were done under light anesthesia, achieved using a 4% isoflurane concentration via a Fortec vaporizer (Cyprane, Keighley, UK). The animals recovered from anesthesia within 1 min. Subsequently, the animals were housed within a cylindrical glass chamber measuring 2 L in volume, equipped with glass drainage mechanisms to facilitate urine collection and a metallic screen to segregate urine from feces (as in Figure S1). Air was drawn from the chamber at 6.0 L/min through a cartridge containing the XAD-2 polymeric resin to capture any exhaled [^14C]-PCB52. For periods longer than 24 h postexposure, exposed dams were placed in a metabolic cage, which was fitted with a cartridge containing XAD-2 to capture exhaled [^14C]-PCB52 as in other end points.
Maternal blood, urine, and feces samples were collected immediately before and at 0.21, 1.67, 12, 24, 48, and 96 h after lung dosing. The exposed dams were euthanized using 4% isoflurane, followed by cervical dislocation and exsanguination via a cardiac puncture. Euthanasia was consistently performed during the light cycle. Dams’ fur was wiped and analyzed for radioactivity. Using the retro-orbital blood collection method, 0.5–1.5 mL ([…] of an exposed pregnant rat’s body weight) of blood sample was collected from each of the dams until the individual dams were necropsied for whole-body tissue harvesting. At the end of the exposure period, the chamber’s interior walls were rinsed separately with water and acetone/hexane (25 – 45 mL) and wiped to measure residues. From the collected whole blood samples, 100 μL were aliquoted into three vials each, and the remaining blood was allowed to clot at room temperature before being centrifuged to yield serum. The placentas, developing fetuses, and whole-body tissue samples were harvested immediately before exposure and at 0.21, 1.67, 12, 24, and 96 h postexposure. […]

[1] = Matter in colon, 12 h post-exposure
[2] = Matter in colon, 24 h post-exposure
[3] = Matter in colon, 96 h post-exposure
[4] = Pituitary, 0.21 h post-exposure
[5] = Pituitary, 1.67 h post-exposure
[6] = Rectal amp., 0.21 h post-exposure
[7] = Rectal amp., 1.67 h post-exposure
[8] = Rectal amp., 12 h post-exposure
[9] = Rectal amp., 24 h post-exposure
[10] = Rectal amp., 96 h post-exposure
[11] = Small intestine, 0.21 h post-exposure
[12] = Small intestine, 1.67 h post-exposure
[13] = Small intestine, 12 h post-exposure
[14] = Small intestine, 24 h post-exposure
[15] = Small intestine, 96 h post-exposure

With `Clc1ccc(Cl)c(-c2cc(Cl)ccc2Cl)c1` [PCB52, 2,2′,5,5′-Tetrachlorobiphenyl] the Percent tissue distribution (Matter in colon, 1.67 h post-exposure) was 0.11%, the “Conc. per mg wet tissue” value [1] was 65.87 dpm/mg and the Percent tissue distribution [1] was 4.20%. The “Conc. per mg wet tissue” value [2] was 66.81 dpm/mg, the Percent tissue distribution [2] was 5.74% and the “Conc. per mg wet tissue” value [3] was 10.10 dpm/mg. For the same molecule, the Percent tissue distribution [3] was 0.36%, the C96 (Matter in duodenum) was 22.17 dpm/mg and the C96 (Matter in intestine) was 6.62 dpm/mg. For the same molecule, the C96 (Matter in stomach) was 4.02 dpm/mg, the C96 (Muscle) was 16.28 dpm/mg and the “Conc. per mg wet tissue” value (Muscle, 1.67 h post-exposure) was 12.39 dpm/mg. For the same molecule, the Percent tissue distribution (Muscle, 1.67 h post-exposure) was 16.65%, the “Conc. per mg wet tissue” value (Muscle, 12 h post-exposure) was 2.86 dpm/mg and the Percent tissue distribution (Muscle, 12 h post-exposure) was 5.23%. For the same molecule, the “Conc. per mg wet tissue” value (Muscle, 24 h post-exposure) was 6.76 dpm/mg, the Percent tissue distribution (Muscle, 24 h post-exposure) was 10.09% and the Percent tissue distribution (Muscle, 96 h post-exposure) was 15.01%. The C96 (Ovary) was 15.41 dpm/mg, the “Conc. per mg wet tissue” value (Ovary, 96 h post-exposure) was 1.95 dpm/mg and the C96 (Pancreas) was 18.96 dpm/mg. The C96 (Pituitary gland) was 378.12 dpm/mg, the “Conc. per mg wet tissue” value [4] was 0.08 dpm/mg and the Percent tissue distribution [4] was 0.01%. The “Conc. per mg wet tissue” value [5] was 2.59 dpm/mg, the Percent tissue distribution [5] was 0.002% and the “Conc. per mg wet tissue” value (Pituitary, 12 h post-exposure) was 1.15 dpm/mg. For the same molecule, the Percent tissue distribution (Pituitary, 12 h post-exposure) was 0.001%, the “Conc. per mg wet tissue” value (Pituitary, 24 h post-exposure) was 1.15 dpm/mg and the Percent tissue distribution (Pituitary, 24 h post-exposure) was 0.002%. The “Conc. per mg wet tissue” value (Pituitary, 96 h post-exposure) was 0.08 dpm/mg, the Percent tissue distribution (Pituitary, 96 h post-exposure) was 0.02% and the C96 (Placenta) was 0.74 dpm/mg. For the same molecule, the “Conc. per mg wet tissue” value (Placenta, 0.21 h post-exposure) was 9.19 dpm/mg, the Percent tissue distribution (Placenta, 0.21 h post-exposure) was 0.17% and the “Conc. per mg wet tissue” value (Placenta, 1.67 h post-exposure) was 6.13 dpm/mg. For the same molecule, the Percent tissue distribution (Placenta, 1.67 h post-exposure) was 0.21%, the “Conc. per mg wet tissue” value (Placenta, 12 h post-exposure) was 9.49 dpm/mg and the Percent tissue distribution (Placenta, 12 h post-exposure) was 0.04%. The “Conc. per mg wet tissue” value (Placenta, 24 h post-exposure) was 10.39 dpm/mg, the Percent tissue distribution (Placenta, 24 h post-exposure) was 0.11% and the “Conc. per mg wet tissue” value (Placenta, 96 h post-exposure) was 4.93 dpm/mg. For the same molecule, the Percent tissue distribution (Placenta, 96 h post-exposure) was 0.02%, the C96 (Rectal Amp.) was 48.04 dpm/mg and the “Conc. per mg wet tissue” value [6] was 14.88 dpm/mg. The Percent tissue distribution [6] was 0.20%, the “Conc. per mg wet tissue” value [7] was 5.18 dpm/mg and the Percent tissue distribution [7] was 0.12%. For the same molecule, the “Conc. per mg wet tissue” value [8] was 1.10 dpm/mg, the Percent tissue distribution [8] was 0.30% and the “Conc. per mg wet tissue” value [9] was 1.73 dpm/mg. The Percent tissue distribution [9] was 0.22%, the “Conc. per mg wet tissue” value [10] was 1.12 dpm/mg and the Percent tissue distribution [10] was 0.09%. For the same molecule, the C96 (Salivary gland) was 10.94 dpm/mg, the “Conc. per mg wet tissue” value (Serum, 0.21 h post-exposure) was 5.04 dpm/mg and the Percent tissue distribution (Serum, 0.21 h post-exposure) was 3.05%. The “Conc. per mg wet tissue” value (Serum, 1.67 h post-exposure) was 7.66 dpm/mg, the Percent tissue distribution (Serum, 1.67 h post-exposure) was 1.36% and the “Conc. per mg wet tissue” value (Serum, 12 h post-exposure) was 9.41 dpm/mg. For the same molecule, the Percent tissue distribution (Serum, 12 h post-exposure) was 0.69%, the “Conc. per mg wet tissue” value (Serum, 24 h post-exposure) was 8.23 dpm/mg and the Percent tissue distribution (Serum, 24 h post-exposure) was 0.92%. For the same molecule, the “Conc. per mg wet tissue” value (Serum, 96 h post-exposure) was 2.68 dpm/mg, the Percent tissue distribution (Serum, 96 h post-exposure) was 0.21% and the C96 (Skin) was 26.05 dpm/mg. For the same molecule, the “Conc. per mg wet tissue” value (Skin, 0.21 h post-exposure) was 14.76 dpm/mg, the Percent tissue distribution (Skin, 0.21 h post-exposure) was 9.66% and the “Conc. per mg wet tissue” value (Skin, 1.67 h post-exposure) was 29.78 dpm/mg. The Percent tissue distribution (Skin, 1.67 h post-exposure) was 18.89%, the “Conc. per mg wet tissue” value (Skin, 12 h post-exposure) was 12.17 dpm/mg and the Percent tissue distribution (Skin, 12 h post-exposure) was 24.12%. For the same molecule, the “Conc. per mg wet tissue” value (Skin, 24 h post-exposure) was 13.13 dpm/mg, the Percent tissue distribution (Skin, 24 h post-exposure) was 19.52% and the “Conc. per mg wet tissue” value (Skin, 96 h post-exposure) was 3.58 dpm/mg. The Percent tissue distribution (Skin, 96 h post-exposure) was 8.73%, the C96 (Small Intestine) was 34.90 dpm/mg and the “Conc. per mg wet tissue” value [11] was 11.75 dpm/mg. For the same molecule, the Percent tissue distribution [11] was 1.17%, the “Conc. per mg wet tissue” value [12] was 2.40 dpm/mg and the Percent tissue distribution [12] was 3.31%. The “Conc. per mg wet tissue” value [13] was 0.85 dpm/mg, the Percent tissue distribution [13] was 1.58% and the “Conc. per mg wet tissue” value [14] was 1.66 dpm/mg. For the same molecule, the Percent tissue distribution [14] was 1.25%, the “Conc. per mg wet tissue” value [15] was 0.56 dpm/mg and the Percent tissue distribution [15] was 0.47%. It also gave a C96 (Spleen) of 5.48 dpm/mg, a C96 (Stomach) of 8.52 dpm/mg and a C96 (Thymus) of 8.05 dpm/mg. The “Conc. per mg wet tissue” value (Thymus, 0.21 h post-exposure) was 9.77 dpm/mg, the Percent tissue distribution (Thymus, 0.21 h post-exposure) was 0.11% and the “Conc. per mg wet tissue” value (Thymus, 1.67 h post-exposure) was 5.38 dpm/mg. For the same molecule, the Percent tissue distribution (Thymus, 1.67 h post-exposure) was 0.11%, the “Conc. per mg wet tissue” value (Thymus, 12 h post-exposure) was 1.76 dpm/mg and the Percent tissue distribution (Thymus, 12 h post-exposure) was 0.03%. The “Conc. per mg wet tissue” value (Thymus, 24 h post-exposure) was 1.62 dpm/mg, the Percent tissue distribution (Thymus, 24 h post-exposure) was 0.03% and the “Conc. per mg wet tissue” value (Thymus, 96 h post-exposure) was 0.83 dpm/mg. The Percent tissue distribution (Thymus, 96 h post-exposure) was 0.01%, the C96 (Thyroid) was 6.46 dpm/mg and the “Conc. per mg wet tissue” value (Thyroid, 1.67 h post-exposure) was 16.43 dpm/mg. The Percent tissue distribution (Thyroid, 1.67 h post-exposure) was 0.019%, the “Conc. per mg wet tissue” value (Thyroid, 12 h post-exposure) was 3.25 dpm/mg and the Percent tissue distribution (Thyroid, 12 h post-exposure) was 0.003%. The “Conc. per mg wet tissue” value (Thyroid, 24 h post-exposure) was 3.26 dpm/mg, the Percent tissue distribution (Thyroid, 24 h post-exposure) was 0.004% and the “Conc. per mg wet tissue” value (Thyroid, 96 h post-exposure) was 0.66 dpm/mg. The Percent tissue distribution (Thyroid, 96 h post-exposure) was 0.001% and the C96 (Uterus) was 3.61 dpm/mg.
